These are yes or no findings as the source states them, for the method shown. For part of these data: Binding seen in cells or lysates may run through a third protein. Some binding calls cover weakened binding; strength is not graded here.
Tests used:
[1] = target: ART domain of Aeromonas salmonicida exoenzyme T (AexT-ART; residues 252-475) (Aeromonas salmonicida) (UniProt Q93Q17); assay: mass photometry; both purified
[2] = target: ART domain of Pseudomonas aeruginosa exoenzyme T (ExoT-ART; residues 235-457) (Pseudomonas aeruginosa) (UniProt Q9I788); assay: mass photometry; both purified
[3] = target: ART domain of Aeromonas salmonicida exoenzyme T (AexT-ART; residues 252-475) (Aeromonas salmonicida) (UniProt Q93Q17); assay: pull-down
[4] = target: ART domain of Pseudomonas aeruginosa exoenzyme T (ExoT-ART; residues 235-457) (Pseudomonas aeruginosa) (UniProt Q9I788); assay: pull-down
[5] = target: ART domain of Aeromonas salmonicida exoenzyme T (AexT-ART; residues 252-475) (Aeromonas salmonicida) (UniProt Q93Q17); assay: SEC-MALS; both purified
[6] = target: ART domain of Pseudomonas aeruginosa exoenzyme T (ExoT-ART; residues 235-457) (Pseudomonas aeruginosa) (UniProt Q9I788); assay: SEC-MALS; both purified

By UniProt entry, the sequences of proteins in these tests, tags left out. Residues count along the entry.
UniProt Q93Q17, residues 252-475: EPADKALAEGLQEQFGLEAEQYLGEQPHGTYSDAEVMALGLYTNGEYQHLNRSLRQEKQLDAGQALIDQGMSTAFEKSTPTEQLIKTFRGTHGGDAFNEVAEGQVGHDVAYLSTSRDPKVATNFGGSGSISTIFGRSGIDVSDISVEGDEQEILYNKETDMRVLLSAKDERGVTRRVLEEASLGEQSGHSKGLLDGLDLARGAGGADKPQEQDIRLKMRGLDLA
UniProt Q9I788, residues 235-457: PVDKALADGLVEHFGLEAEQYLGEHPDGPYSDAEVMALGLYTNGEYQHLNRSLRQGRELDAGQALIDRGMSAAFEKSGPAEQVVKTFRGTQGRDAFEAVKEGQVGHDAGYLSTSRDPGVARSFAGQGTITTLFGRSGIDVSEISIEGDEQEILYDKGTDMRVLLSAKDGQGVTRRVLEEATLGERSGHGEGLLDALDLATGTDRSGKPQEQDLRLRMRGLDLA
UniProt P31946, residues 1-239: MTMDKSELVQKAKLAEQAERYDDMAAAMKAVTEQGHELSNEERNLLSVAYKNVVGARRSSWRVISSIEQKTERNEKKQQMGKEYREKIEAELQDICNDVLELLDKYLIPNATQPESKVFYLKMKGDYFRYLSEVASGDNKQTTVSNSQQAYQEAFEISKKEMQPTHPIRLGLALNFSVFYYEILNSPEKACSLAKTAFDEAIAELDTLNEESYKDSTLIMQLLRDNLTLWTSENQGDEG

Measured: binding

human 14-3-3β, un-tagged, co-expressed with the exotoxin ART domains (from UniProt P31946 1-239)
binds: all assays above

Reference: PMC9787417 (Pathogens, 2022)
